In patent US20090104705A1, “Ascorbic acid conjugates” (priority 2005, published 2009):

Columns and labels:
[1] = Plasma ascorbyl-HNE conjugate by LC/MS/MS-MRM in smokers and nonsmokers; format: in vivo, human; settings: mean ± SD
Procedure: Plasma samples were obtained from subjects who participated in a recently completed study at the Linus Pauling Institute. Participants were recruited on the basis of normal lipid status (total cholesterol <200 mg/dL; triglycerides <200 mg/dL), age (18-35 years), non-nutritional supplement use for greater than six months, and exercise status (<5 h/w of aerobic activity). Smokers were selected if they smoked >10 cigarettes/d, and smoking status of participants was verified by the measurement of urinary cotinine (Diagnostics Products Corp, CA).
A blood sample was obtained from the antecubital vein of each participant after an overnight fast (˜12 h) into blood collection tubes (Vacutainer, Becton Dickinson, Franklin Lakes, N.J.) containing sodium heparin. Smokers were asked to refrain from smoking for 1 h prior to blood collection to obviate transient oxidative stress effects. Plasma was separated by centrifugation (500×g, 15 min, 4° C.; Beckman TJ-6, Palo Alto, Calif.), aliquoted into cryovials, snap frozen in liquid nitrogen, and then stored at −80° C. until analysis. Urine was collected for 24 h on a single occasion to evaluate urinary cotinine. Aliquots of urine were stored at −80° C. until analysis.
Two hundred-μl aliqots of human plasma were acidified with 250 μl of 0.1 M HCl. One ml of water was then added. Ethyl acetate was used to extract the ascorbyl-HNE conjugate (3×3 ml). The combined organic layers were then dried under a stream of nitrogen. The residue was redissolved in 65 μl of ethanol and mixed with 65 μl of LC Solvent A. Prior to injection, the samples were centrifuged for 5 min at 10,000 RPM. Injection volumes were 20 μl. Controls for the formation of ex vivo-artifact formation were performed as described previously.
A curve allowing for the determination of ascorbylated HNE in human plasma was constructed utilizing liquid chromatography with tandem mass spectrometry operated in multiple reaction monitoring mode (LC/MS/MS-MRM). Varying amounts of the ascorbyl-HNE adduct were mixed with a fixed amount of the internal standard, ascorbyl-octenal, to give 0.5, 1.0, 5.0, 10 and 50 μM of the analyte and 25 μM of the internal standard. […] The transitions m/z 350→m/z 177 and m/z 320→m/z 223 were used for quantitation of the synthetic standard and internal standard, respectively. […]
Plasma samples from twenty subjects, ten smokers and ten nonsmokers, were prepared as described above, with the exception that the samples were spiked with internal standard (ascorbyl-octenal, 25 μM final concentration) prior to extraction. The samples were analyzed by LC/MS/MS-MRM and the concentration of the ascorbyl-HNE adduct determined through comparison with a calibration curve. […]
F2-isoprostane levels of the plasma samples also were determined. […]

[2] = Standard addition experiments on nonsmoker and smoker plasma; format: in vivo, human
Procedure: Two hundred-μl-Aliquots of a plasma sample were spiked with varying amounts of ascorbyl-HNE adduct to give concentrations of 1.0, 2.0, 4.0 and 6.0 μM. The plasma samples were also spiked with internal standard (ascorbyl-octenal, 25 μM final concentration). The samples were analyzed by LC/MS/MS-MRM as described above.
Standard addition experiments were conducted on nonsmoker and smoker plasma to further assess the accuracy and precision of the method developed for determination of the ascorbyl-HNE conjugate concentration in human plasma (FIGS. 6A and 6B). Aliquots of a nonsmoker plasma sample were spiked with synthetic ascorbyl-HNE adduct (1, 2, 4 and 6 μM) and ascorbyl-octenal adduct (25 μM). The samples were extracted as described previously and analyzed by LC/MS/MS-MRM (FIG. 6A). Aliquots of synthetic ascorbyl-HNE adduct and internal standard were run in parallel (FIG. 6B). Extrapolation of curve A1 to y=0 gave an ascorbyl-HNE conjugate concentration of 2.28 μM. A blank plasma sample was analyzed using the calibration curve (FIG. 6, curve A2), and the ascorbyl-HNE conjugate concentration was determined to be 2.68 μM. An analogous experiment using smoker plasma was conducted and the results are shown in FIG. 6, panel B. Extrapolation of curve B1 to y=0 gives an ascorbyl-HNE concentration of 0.35 μM. Analysis of this plasma sample using curve B2 of FIG. 6 gives a concentration of 0.32 μM.

CCCCCC1OC(O)CC1C1(O)C(=O)OC2C(O)COC21O (stereo not drawn) [ascorbyl-HNE conjugate, 3,3α,6-trihydroxy-3-(5-hydroxy 2-pentyl-tetrahydro-furan-3-yl)-tetrahydro-furo[3,2-b]furan-2-one]
plasma ascorbyl-HNE conjugate concentration ([1]; nonsmokers (n = 10)): 1.16 µM | plasma ascorbyl-HNE conjugate concentration ([1]; nonsmokers (n = 10), listed as Ascorbyl-HNE): 1.16 ± 0.65 µM | plasma ascorbyl-HNE conjugate concentration ([1]; smokers (n = 10)): 0.40 µM | plasma ascorbyl-HNE conjugate concentration ([1]; smokers (n = 10), listed as Ascorbyl-HNE): 0.40 ± 0.31 µM | ascorbyl-HNE conjugate concentration, calibration curve A2 ([2]; nonsmoker plasma sample, blank (unspiked)): 2.68 µM | ascorbyl-HNE conjugate concentration, extrapolation of curve A1 to y=0 ([2]; nonsmoker plasma sample, standard addition): 2.28 µM | ascorbyl-HNE concentration, curve B2 ([2]; smoker plasma sample): 0.32 µM | ascorbyl-HNE concentration, extrapolation of curve B1 to y=0 ([2]; smoker plasma sample, standard addition): 0.35 µM
